Results are given in words; binding and its absence hold for the method and conditions named. Binding can be weak; no strength is given. Sequences can lack the tags named with a protein.

Test [1] has as its target T1, MBP-Puf3 (full-length S. pombe Puf3, N-terminal maltose-binding protein fusion) (S. pombe) (UniProt O94462).
T1 sequence: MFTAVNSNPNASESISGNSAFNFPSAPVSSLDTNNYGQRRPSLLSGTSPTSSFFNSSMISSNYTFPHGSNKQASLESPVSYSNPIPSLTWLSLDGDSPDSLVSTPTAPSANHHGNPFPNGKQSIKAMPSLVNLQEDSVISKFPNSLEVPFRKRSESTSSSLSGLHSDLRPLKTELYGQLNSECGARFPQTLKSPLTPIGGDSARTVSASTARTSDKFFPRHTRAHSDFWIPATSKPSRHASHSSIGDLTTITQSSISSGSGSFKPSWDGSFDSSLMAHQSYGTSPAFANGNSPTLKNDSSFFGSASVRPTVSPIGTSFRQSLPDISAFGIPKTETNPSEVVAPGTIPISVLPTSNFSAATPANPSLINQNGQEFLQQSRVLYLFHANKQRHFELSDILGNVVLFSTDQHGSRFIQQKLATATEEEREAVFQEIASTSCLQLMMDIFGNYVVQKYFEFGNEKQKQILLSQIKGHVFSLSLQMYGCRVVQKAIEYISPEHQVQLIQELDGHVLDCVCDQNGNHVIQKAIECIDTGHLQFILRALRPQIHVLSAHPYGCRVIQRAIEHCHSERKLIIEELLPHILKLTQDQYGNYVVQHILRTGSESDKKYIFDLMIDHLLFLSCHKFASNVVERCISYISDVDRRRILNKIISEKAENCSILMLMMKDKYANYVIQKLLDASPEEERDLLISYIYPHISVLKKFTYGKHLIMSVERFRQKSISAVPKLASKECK
In words: pull-down.

The target of test [2] is T2, MBP-Zfs1 (full-length S. pombe Zfs1, N-terminal maltose-binding protein fusion) (S. pombe) (UniProt P47979).
T2 sequence: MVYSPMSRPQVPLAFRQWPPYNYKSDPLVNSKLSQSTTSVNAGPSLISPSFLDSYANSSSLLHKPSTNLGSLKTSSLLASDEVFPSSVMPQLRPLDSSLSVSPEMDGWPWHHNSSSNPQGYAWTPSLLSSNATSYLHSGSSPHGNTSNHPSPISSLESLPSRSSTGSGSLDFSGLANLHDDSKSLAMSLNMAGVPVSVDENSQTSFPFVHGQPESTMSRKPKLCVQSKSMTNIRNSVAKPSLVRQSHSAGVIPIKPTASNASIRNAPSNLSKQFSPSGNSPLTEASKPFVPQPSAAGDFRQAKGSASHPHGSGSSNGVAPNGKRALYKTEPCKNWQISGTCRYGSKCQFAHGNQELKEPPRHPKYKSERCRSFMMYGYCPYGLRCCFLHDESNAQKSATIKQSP
The experiment in a line: pull-down.

In the case of “Ccr4-Not complex (intact recombinant seven-subunit S. pombe complex) (Schizosaccharomyces pombe)”, the binding entry in test [1] and in test [2] was “binds” throughout.

The values are drawn from article doi:10.1101/478008.
